Literature values as cited in patent publication US6900315B2, “2-amino-9H-purin-9-yl compounds and methods for inhibiting/treating HIV infections and AIDS related symptoms” (Yale University, priority 2001, dated 2005).
At least one structure is not confirmed: it was looked up by name or label, or the drawing left a doubt.

System: HIV
Conditions: pairs: D4T and AZT, 3TC and ddC, FD4C and 3TC, abacavir and cyclo D4G; Bridges et al., Dutschman et al.; cited from earlier work

Nc1ccn([C@@H]2CS[C@H](CO)O2)c(=O)n1 [3TC, β-L-(−)-2′,3′-dideoxy-3′-thiacytidine]
anti-HIV interaction of two analogs of the same base: not synergistic
